Results as given in PubChem BioAssay AID1347423 (Functional Genomics Laboratory (NCATS/FGL), 2020).
Screen size: about 52,000 sequences; about 210 (0.4%) were called active.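 Rule for the calls: active = gene whose silencing raises cell survival under the drug, median off-target-corrected z-score across its silencing RNAs 2 or more; inactive = the rest.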 The list shows a part of the results.

Assay: Resistance to Poly (ADP-Ribose) Polymerase inhibitor: Gene Identification via Genome-wide siRNA Screen
Conditions: mouse BRCA2 R2336H ES cells, olaparib, CellTiter-Glo viability; hits give high values
How it was run: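 Genome-wide siRNA screen (3 siRNAs/gene, 20 nM) in mouse ES cells carrying hypomorphic BRCA2 R2336H; olaparib 500 nM added 48 h post-transfection, CellTiter-Glo viability 72 h later. Normalized to plate-median negative control; MAD z-scores, gene median, seed-adjusted.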

**Q.** For GCUUUACUGAGAUUGAGCGTT against Zfp289, which z-score is on record?
**A.** Its z-score is inactive: 0.533.

**Q.** For “GGAAAUUGGAGAUUUUUCCTT against 1700007N18Rik”, which z-score is on record?
**A.** Its z-score is inactive: 0.824.

**Q.** Which z-score does the source give for GGAAUGGUGAUAGCCACACTT against Olfr24 here?
**A.** Its z-score is inactive: -1.31.

**Q.** Which z-score does the source give for CGCUCUGUAGUUUCCUUUCTT against Camk1d here?
**A.** The z-score was inactive: 1.46.

**Q.** Which z-score does the source give for “CGUGACCAUCAGGCUAAAGTT against 1500015O10Rik” here?
**A.** The z-score was inactive: -1.95.

**Q.** With GCCCAACCAGUUUGAAUCUTT against AI663987 as the sequence, how does the z-score read?
**A.** The z-score was inactive: -0.14.

**Q.** Which z-score does the source give for “CGAAUAUGCAGGAUGGUAGTT against 1110034A24Rik” here?
**A.** The z-score was inactive: 0.786.

**Q.** For GGAGAAGGAAAUUCAGAAATT against Gnpda1, which z-score is on record?
**A.** Its z-score is inactive: 0.0973.

**Q.** Which z-score does the source give for GGAGAACCCUUAUGUGACATT against Pik3ca here?
**A.** The z-score was inactive: 1.14.

**Q.** With GGAAGAAAAGGUGUUUACATT against Gpr143 as the sequence, how does the z-score read?
**A.** The z-score was inactive: 1.18.

**Q.** With “GAUUUACUCUGGACAUUUUTT against D8Ertd354e” as the sequence, how does the z-score read?
**A.** The z-score was inactive: -0.735.

**Q.** With GCGGUAGAGACUACAGCCUTT against BC028528 as the sequence, how does the z-score read?
**A.** Its z-score is inactive: 0.291.

**Q.** With GGCUUUGAUUGAACAUGAGTT against Lypla2 as the sequence, how does the z-score read?
**A.** Its z-score is inactive: 0.783.

**Q.** With GGGCUUCAACACUGAGAAGTT against Arf4l as the sequence, how does the z-score read?
**A.** Its z-score is inactive: -1.54.

**Q.** Which z-score does the source give for GGGAUCCUUGUAUUUCUUUTT against Ctns here?
**A.** Its z-score is inactive: -0.123.

**Q.** Which z-score does the source give for GGAUGUGGAAGAGUUAAUUTT against Palm2 here?
**A.** The z-score was inactive: 0.0302.

**Q.** Which z-score does the source give for GGCUCUUAGAAAAAUGUUATT against Olfr1156 here?
**A.** Its z-score is inactive: 0.386.

**Q.** Which z-score does the source give for GGUCUUUUCUAUUAUGGGATT against Strc here?
**A.** Its z-score is inactive: 0.95.

**Q.** With GGACAAGAAGAAAAAGAAGTT against Tmie as the sequence, how does the z-score read?
**A.** The z-score was inactive: -0.587.

**Q.** With GGUUCUCAUCAACCUUCUCTT against Olfr109 as the sequence, how does the z-score read?
**A.** Its z-score is inactive: 2.16.

**Q.** With GGGCUUUCUUUGUGAUAUUTT against BC055367 as the sequence, how does the z-score read?
**A.** The z-score was inactive: -0.666.

**Q.** Which z-score does the source give for GCUUUUACCGUUACGUCUUTT against Ugcgl1 here?
**A.** The z-score was inactive: -0.188.

**Q.** For GGAGCUUGAAGGAUGAGGATT against Plaur, which z-score is on record?
**A.** The z-score was inactive: 1.31.

**Q.** With GCCACGAUAAUUCAGGAGUTT against Aurkc as the sequence, how does the z-score read?
**A.** Its z-score is inactive: 1.25.

**Q.** Which z-score does the source give for GCACAGUUAGCAUUGCUCCTT against Hoxc10 here?
**A.** The z-score was inactive: 0.577.

**Q.** Which z-score does the source give for GGUGAUGGAAGUUAGUGUGTT against Bet1 here?
**A.** Its z-score is inactive: -0.804.

**Q.** For GGAGAAAAUGAGGUUAAUGTT against Tm4sf9, which z-score is on record?
**A.** Its z-score is inactive: -0.0318.

**Q.** For GGUAUUUGAUGGUCACAAATT against Rtn3, which z-score is on record?
**A.** Its z-score is inactive: -0.386.

**Q.** Which z-score does the source give for GGUUUUGCCAAGGACGCAGTT against Ngfb here?
**A.** The z-score was inactive: 0.256.

**Q.** Which z-score does the source give for GGAAGCUCAGCUCCUAUCUTT against Nek4 here?
**A.** The z-score was inactive: -1.49.

**Q.** For CGGCACCAGUUACAAAGUGTT against MGC107514, which z-score is on record?
**A.** The z-score was inactive: -2.72.

**Q.** Which z-score does the source give for CCAUAGAGUGGAUAGUCAUTT against Rsl1 here?
**A.** Its z-score is inactive: 1.22.

**Q.** With CGCGAGCUCAGAAUACAUGTT against Btn1a1 as the sequence, how does the z-score read?
**A.** Its z-score is inactive: -0.329.

**Q.** Which z-score does the source give for GGAAGUGUCCUUCUACCAGTT against Hoxd13 here?
**A.** Its z-score is inactive: 0.247.

**Q.** With GGUCCUGACACAUUCUUACTT against Olfr571 as the sequence, how does the z-score read?
**A.** Its z-score is inactive: -0.707.

**Q.** With GCCCAGAGUUACGAGUAUGTT against Aacs as the sequence, how does the z-score read?
**A.** The z-score was inactive: 1.6.

**Q.** For GGUCCUCAGAAUGUAACAGTT against Jam4, which z-score is on record?
**A.** Its z-score is inactive: -0.665.

**Q.** With “GGAAAGCAUGAGUUAAUAATT against 5033405K12Rik” as the sequence, how does the z-score read?
**A.** Its z-score is inactive: -2.02.

**Q.** With GGCAUUUUGAAAACAAGGUTT against Cox7a2 as the sequence, how does the z-score read?
**A.** Its z-score is inactive: 1.31.

**Q.** Which z-score does the source give for GGAGAAAGUGUCCUCUGUGTT against Olfr924 here?
**A.** The z-score was inactive: -1.88.

**Q.** For GGAAAGGAACUAGCAACGATT against Art3, which z-score is on record?
**A.** Its z-score is inactive: 1.23.

**Q.** For GGAAAGGUAUGAGUGAAGATT against Ifi205, which z-score is on record?
**A.** Its z-score is inactive: 0.199.

**Q.** With CCGCAUGAACUUCCUACAGTT against Ugt1a1 as the sequence, how does the z-score read?
**A.** The z-score was inactive: 0.243.

**Q.** With “GGCAUCUGUAAGCCAGAUCTT against 2410021P16Rik” as the sequence, how does the z-score read?
**A.** Its z-score is inactive: 0.61.

**Q.** Which z-score does the source give for “GGACUUUCAGUUAUAUAGGTT against 1110031I02Rik” here?
**A.** Its z-score is inactive: 1.15.

**Q.** For GGAGAUGGCCAAAAAAGAGTT against Pop1, which z-score is on record?
**A.** The z-score was inactive: -0.929.

**Q.** Which z-score does the source give for “GAAACCAGUAGACAAAUACTT against 1110067L22Rik” here?
**A.** Its z-score is inactive: -0.563.

**Q.** Which z-score does the source give for GCUUAUGAACCUCAGAGGGTT against Tex19 here?
**A.** Its z-score is inactive: 0.0582.

**Q.** For “GCACACACUGCUACGAUGGTT against 1190003K14Rik”, which z-score is on record?
**A.** Its z-score is inactive: 0.414.

**Q.** For GGCAUGAGUCACUUGAUGATT against Hebp1, which z-score is on record?
**A.** Its z-score is inactive: 0.719.

**Q.** For AAGGAAGACAGUCAUAGCUTT against V1rd9, which z-score is on record?
**A.** The z-score was inactive: 0.72.

**Q.** Which z-score does the source give for GCCUUUACCGAGUGCACAUTT against Ttyh3 here?
**A.** Its z-score is inactive: 0.416.

**Q.** Which z-score does the source give for GCACUGGGAAGAAAAUUCUTT against Olfr130 here?
**A.** The z-score was inactive: -0.313.

**Q.** With GCGGCUAAUUCGUUCUUUCTT against Atp8a1 as the sequence, how does the z-score read?
**A.** The z-score was inactive: 2.34.

**Q.** For GCGAGAUGCCAACAAACUGTT against Pacs1, which z-score is on record?
**A.** Its z-score is inactive: 0.346.

**Q.** Which z-score does the source give for GCAAACUGAAAAAACCCGCTT against Stk22c here?
**A.** Its z-score is inactive: -0.126.

**Q.** Which z-score does the source give for GGGAUGUGAUAGUUCAUAATT against Sil here?
**A.** Its z-score is inactive: -1.64.

**Q.** With “GCUGAUGACCACUGAGUUUTT against 2310007F12Rik” as the sequence, how does the z-score read?
**A.** Its z-score is inactive: 1.45.

**Q.** For GGAUGCUAUAAAAUCACCATT against Rps27, which z-score is on record?
**A.** The z-score was inactive: -0.268.

**Q.** Which z-score does the source give for GGGCUUCAUUCUCGUCUACTT against Rap2b here?
**A.** The z-score was inactive: -0.831.

**Q.** With GGCCCAACAAUACCUGCUGTT against Rgs17 as the sequence, how does the z-score read?
**A.** Its z-score is inactive: 0.132.

**Q.** With GGAUACACAGACAUUAAUCTT against Cd164 as the sequence, how does the z-score read?
**A.** Its z-score is inactive: -0.688.

**Q.** Which z-score does the source give for GGUUUCGUAGCUUAACCACTT against Rab27a here?
**A.** Its z-score is inactive: -1.31.

**Q.** For GCUGAAUGGAAGGAAGUUGTT against BC056474, which z-score is on record?
**A.** Its z-score is inactive: -2.14.

**Q.** For GGUACUUGAAGCUCCUUGGTT against Faim3, which z-score is on record?
**A.** Its z-score is inactive: -3.06.

**Q.** For GGACUACGGAUACAGGAUATT against Sfrp5, which z-score is on record?
**A.** The z-score was inactive: 0.855.

**Q.** For GGAGAAUACAGUGGAAUUGTT against Idh3a, which z-score is on record?
**A.** Its z-score is inactive: -0.598.
